Data as given in publication PMC3164226.
These are yes or no findings as the source states them, for the method shown. In cells and extracts the contact can be indirect. Some results given as binding are weak or reduced against the parent protein; the word gives no strength.

By UniProt entry, the sequences of proteins in these tests, tags left out. Where a name states a change or a piece, a line headed by the entry shows the natural chain unless it says otherwise. Chains listed by the source or under a name are the forms on record and can include a tag or linker.
(GFP)torA-E171Q (O14656, form named): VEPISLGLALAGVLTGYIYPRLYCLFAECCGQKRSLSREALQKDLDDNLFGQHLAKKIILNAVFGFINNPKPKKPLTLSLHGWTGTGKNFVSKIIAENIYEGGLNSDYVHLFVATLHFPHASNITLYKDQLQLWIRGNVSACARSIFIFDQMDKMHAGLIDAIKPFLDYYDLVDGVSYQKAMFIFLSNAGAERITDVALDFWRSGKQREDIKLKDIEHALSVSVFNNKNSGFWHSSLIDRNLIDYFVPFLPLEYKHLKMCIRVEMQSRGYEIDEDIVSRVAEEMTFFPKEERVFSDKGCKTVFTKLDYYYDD
(GFP)torA-ΔE (O14656, form named): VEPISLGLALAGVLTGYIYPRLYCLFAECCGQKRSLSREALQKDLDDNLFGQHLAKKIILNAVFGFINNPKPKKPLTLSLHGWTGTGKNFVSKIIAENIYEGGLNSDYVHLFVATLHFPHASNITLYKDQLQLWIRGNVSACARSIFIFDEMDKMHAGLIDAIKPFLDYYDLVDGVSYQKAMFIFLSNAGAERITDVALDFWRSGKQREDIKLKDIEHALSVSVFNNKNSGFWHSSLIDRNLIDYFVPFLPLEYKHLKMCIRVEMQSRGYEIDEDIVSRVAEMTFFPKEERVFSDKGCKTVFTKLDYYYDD
Lamina-Associated-Polypeptide 1 (LAP1) (Q921T2-3, form named): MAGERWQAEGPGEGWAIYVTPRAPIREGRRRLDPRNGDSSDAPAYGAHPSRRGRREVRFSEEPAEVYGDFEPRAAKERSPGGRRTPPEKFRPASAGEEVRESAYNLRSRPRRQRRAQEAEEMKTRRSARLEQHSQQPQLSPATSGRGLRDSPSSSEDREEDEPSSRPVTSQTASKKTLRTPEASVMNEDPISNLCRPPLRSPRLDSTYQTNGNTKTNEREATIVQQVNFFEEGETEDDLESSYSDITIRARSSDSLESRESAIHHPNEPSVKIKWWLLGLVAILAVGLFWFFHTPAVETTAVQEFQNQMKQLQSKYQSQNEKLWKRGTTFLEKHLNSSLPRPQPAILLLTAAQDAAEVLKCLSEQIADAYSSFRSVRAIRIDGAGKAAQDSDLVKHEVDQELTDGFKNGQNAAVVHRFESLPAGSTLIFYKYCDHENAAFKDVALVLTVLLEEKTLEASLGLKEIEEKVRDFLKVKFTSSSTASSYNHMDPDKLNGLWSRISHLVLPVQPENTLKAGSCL
UniProt Q8BYU6: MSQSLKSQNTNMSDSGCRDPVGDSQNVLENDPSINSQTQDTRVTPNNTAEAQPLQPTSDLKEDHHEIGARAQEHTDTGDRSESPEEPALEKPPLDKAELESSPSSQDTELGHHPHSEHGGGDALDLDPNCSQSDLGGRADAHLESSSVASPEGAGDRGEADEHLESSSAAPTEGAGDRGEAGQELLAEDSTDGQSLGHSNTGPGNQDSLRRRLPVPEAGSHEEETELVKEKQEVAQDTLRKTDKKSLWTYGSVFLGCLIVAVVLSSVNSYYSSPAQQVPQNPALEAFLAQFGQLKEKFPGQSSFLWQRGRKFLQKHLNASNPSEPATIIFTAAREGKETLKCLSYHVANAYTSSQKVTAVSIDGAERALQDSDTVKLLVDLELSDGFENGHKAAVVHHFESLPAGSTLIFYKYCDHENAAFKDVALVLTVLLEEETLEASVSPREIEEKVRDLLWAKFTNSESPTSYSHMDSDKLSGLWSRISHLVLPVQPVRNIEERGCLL

Key:
(GFP)torA-E171Q (human) = (GFP)torA-E171Q (human) (UniProt O14656); test: co-IP; anti-GFP conjugated AminoLink resin, lysates of NIH-3T3 cells stably expressing (GFP)torA; 50 mM imidazole-HCl pH 7.5, 5% glycerol, 0.5% digitonin, 4 mM MgCl2, 50 mM NaCl, 2 mM ATP and 0.5 mM ADP; 2.5 h at 4°C; mild elution with non-reducing Laemmli buffer; Western blot
(GFP)torA-ΔE (human) = (GFP)torA-ΔE (human) (UniProt O14656); test: as above

| Substance | binding ((GFP)torA-E171Q (human)) | binding ((GFP)torA-ΔE (human)) |
| --- | --- | --- |
| Lamina-Associated-Polypeptide 1 (LAP1) (from UniProt Q921T2-3 1-520) | binds | no binding |
| LULL1 (Luminal domain like LAP 1) (from UniProt Q8BYU6 1-502) | binds | no binding |
